Measured values as given in PubChem BioAssay AID1487 (National Center for Advancing Translational Sciences (NCATS), 2009).
Screen size: about 200,000 compounds; about 25 (0.01%) were called active. The inconclusive results got no clear call from the source; some entries with a clear call stand among them for comparison. The call rests on the fitted dose curve; in most records, active means well fitted inhibition curve with a large enough effect in the signal ratio, with a control signal flat (not every such curve was filed as active); inconclusive means small, poorly fitted or top-dose-only effect, or effect the other way, or a change in a side signal; inactive means flat fitted curve, though single readings scatter; the % refers to the signal ratio. Potencies beside an inconclusive call are fits to weak or partial responses and may not hold up.

Assay: qHTS Assay for Modulators of Lamin A Splicing
Conditions: HeLa LMNA splicing GFP/RFP minigene ratio, 48 h; ratio change, negative = inhibition: at 46.1 µM (top of the series) unless noted
How it was run: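 Read-out is the ratio of GFP to DsRed2 object intensity, acquired by 488 nm laser-scanning cytometry on HeLa lamin A-EGFP minigene reporter cells. Compound incubation 48 hrs at 37 °C in Opti-MEM with 2% FBS; DMSO 0.5% final.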
On the % scale 0 is the no-effect control and ±100 the full control effect; potency means the concentration at half of the fitted maximal effect.

| SMILES | ratio change, negative = inhibition | Potency |
| --- | --- | --- |
| COc1ccc(N2CCCn3c2nc2c3c(=O)n(Cc3ccccc3F)c(=O)n2C)c(OC)c1 | inactive: -6.03% |  |
| Cc1cccc(OCC(=O)Nc2ccc(Cl)c(-c3nc4ccccc4[nH]3)c2)c1 |  | inconclusive: 35.5 µM [falling, single point] |
| O=S(=O)(Nc1cccc2nsnc12)c1ccccc1 | inactive: 9.45% |  |
| COc1ccc(-c2nc3ncccn3c2Nc2ccccc2)cc1 | inactive: 4.61% [at 46 µM] |  |
| COc1ccc(-c2c(C#N)c(C)nc3c2C(=O)c2ccccc2-3)cc1 | inactive: -2.5% [at 0.0737 µM] |  |
| CCOC(=O)c1oc2ccc(Br)cc2c1NC(=O)CN1CCN(C)CC1 | inactive: -8.77% |  |
| O=C(Cn1nc(-c2ccccc2Cl)ccc1=O)Nc1ccccc1-c1ccccc1 | inactive: -6.37% [at 46 µM] |  |
| CCOc1cc(C(=O)Nc2ccc3c(c2)OCO3)ccc1OCCOc1ccccc1Cl | inconclusive: 8.44% |  |
| CCCn1cc(S(=O)(=O)c2ccc(OC)cc2)c(=O)c2cc(F)c(N3CCCC(C)C3)cc21 (stereo unspecified) | inactive: -0.463% [at 46 µM] |  |
| O=C1c2ccccc2C(=O)N1CCCCSc1nnc(-c2ccc(OC(F)F)cc2)o1 |  | inconclusive: 35.5 µM [fluorescent, single point] |
| CCCCCCNC(=O)Cc1c(O)c2ccccc2[nH]c1=O | inactive: -5.89% |  |
| O=C(Nc1cc(-c2ccccc2F)nn1-c1ccccc1)c1ccccc1Br | inconclusive: -14.5% [at 46 µM] |  |
| CCOC(=O)c1noc2ncnc(N3CCN(c4cccc(C(F)(F)F)c4)CC3)c12 | inactive: -12.6% [at 46 µM] |  |
| Cc1ccc(OCc2nc(-c3ccccn3)no2)c(Br)c1 | inconclusive: 15.2% |  |
| N#C/C(=C/c1cn(-c2ccccc2)nc1-c1cccc(OCc2ccccc2)c1)C(=O)NCCCn1ccnc1 | inconclusive: 105% |  |
| CCOc1cc(Br)c(C=O)cc1OCC |  | inconclusive: 7.08 µM [inhibitor, partial curve] |
| COCCNC(=O)CSc1nc2c(n1-c1ccccc1)CCCC2 | inconclusive: 15.5% |  |
| O=C(NNC(=O)c1ccc(Cl)cc1Cl)Nc1ccccc1 | inactive: -9.39% |  |
| O=C(COC(=O)c1ccccc1C(=O)c1ccccc1)Nc1cccc([N+](=O)[O-])c1 |  | inconclusive: 11.2 µM [fluorescent, single point] |
| COc1ccc(C(=O)C(CN2CCOCC2)c2ccccc2)cc1F (stereo unspecified) |  | inconclusive: 35.5 µM [rising, single point] |
| CCC(CC)c1nc(C#N)c(NC(C)c2ccccc2)o1 (stereo unspecified) | inconclusive: -35.4% |  |
| NC(=O)CSc1nc2sc(-c3ccccc3)cc2c(=O)n1N | inactive: 8.4% |  |

| SMILES | ratio change, negative = inhibition | Potency |
| --- | --- | --- |
| Cn1nc(CC(=O)Nc2ncc(Br)s2)c2ccccc2c1=O |  | inconclusive: 7.08 µM [fluorescent, full curve] |
| Cc1nc(-c2ccccc2)sc1CCNC(=O)C(=O)Nc1ccc(F)c(Cl)c1 | inactive: 7.57% [at 46 µM] |  |
| O=Cc1ccc(N2CCCCC2)cc1 | inactive: 9.19% [at 46 µM] |  |
| FC(F)(F)c1ccc2c(c1)n(Cc1ccccc1)c1[n+]2CCCCC1 | inconclusive: 8.54% [at 46 µM] |  |
| N/C(=N\OC(=O)c1ccc2c(c1)OCO2)c1cccnc1 | inconclusive: 47.8% [at 46 µM] |  |
| COc1ccc(C2CC(c3c(-c4ccccc4)c4cc(Cl)ccc4[nH]c3=O)=NN2S(C)(=O)=O)cc1 (stereo unspecified) | inactive: 8.54% |  |
| O=C(O)c1cccc(NC(=O)C2C3C=CC(C3)C2C(=O)O)c1 (stereo unspecified) | inactive: -5.21% |  |
| COc1cnc(-c2ccccn2)nc1Oc1c(C)cccc1C | inconclusive: -28.3% [at 46 µM] |  |
| CC(C)c1cc(C(=O)N2CCCC(CCC(=O)NCc3ccccc3F)C2)n(C)n1 (stereo unspecified) | inconclusive: 9.37% [at 46 µM] |  |
| O=[N+]([O-])c1cccc2ccc(/C=C/c3cccc(Br)c3)nc12 | inactive: -11.9% |  |
| O=C(c1ccc(-n2cccc2)cc1)N1CCN(Cc2ccccc2)CC1 | inactive: 3.42% |  |
| COc1ccc(C(=O)N/N=C/c2c(CO)cnc(C)c2O)cc1 |  | inconclusive: 35.5 µM [inhibitor, single point] |
| C=CCN1C(=O)C(CC(=O)Nc2ccc(OC)cc2)N(Cc2ccco2)C1=S (stereo unspecified) | inconclusive: 4.03% |  |
| COc1cc(C=NCC2OCCc3ccccc32)cc(OC)c1 (stereo unspecified) | inconclusive: -0.726% |  |
| CC1=C(C(=O)Nc2ccccc2C(F)(F)F)C(c2ccc(C)s2)NC(=S)N1 (stereo unspecified) | inactive: -14.6% [at 46 µM] |  |
| COc1cc(/C(C)=N\NC(N)=S)cc(OC)c1OC | inactive: -2.34% |  |
| Cc1onc(-c2ccccc2)c1C(=O)NCC1COc2ccccc2O1 (stereo unspecified) | inconclusive: -12.9% |  |
| COc1ccc(OC)c(/C=N/NC(=O)CCN2CCN(C(c3ccccc3)c3ccccc3)CC2)c1 | inconclusive: -34.3% |  |
| CCN(CC)S(=O)(=O)c1cc(NC(=O)Cn2cnc3ccccc3c2=O)ccc1C | inactive: -27.5% |  |
| COc1cc2ccc(=O)oc2cc1O | inconclusive: -12.7% |  |
| CCCn1nnc(NC(=O)COc2ccc(C3CCCCC3)cc2)n1 | inconclusive: 4.82% |  |
| CN1CCN(C(=O)c2ccc(N(C)S(=O)(=O)c3cccs3)cc2)CC1 | inactive: 17% [at 46 µM] |  |

| SMILES | ratio change, negative = inhibition | Potency |
| --- | --- | --- |
| CCOc1cc(NC(=S)Nc2cccc(C)c2)c(OCC)cc1NC(=O)CC(C)C | inconclusive: 2.24% |  |
| CNC(=O)c1sc(-c2ccccc2)nc1C | inactive: -6.4% |  |
| CCOc1cc(/C=C2\SC(=N)N(c3nonc3N)C2=O)ccc1OCCN1CCOCC1 | inconclusive: -18% [at 46 µM] |  |
| O=C(O)CCN1C(=O)c2ccc(NC(=O)c3ccco3)cc2C1=O | inconclusive: -8.9% [at 46 µM] |  |
| O=C1CCC(=O)N1c1ccc(NC2CCN(Cc3ccccc3)CC2)c([N+](=O)[O-])c1 | inconclusive: -15.8% [at 9.22 µM] |  |
| O=C(N/N=C/c1cn(-c2ccccc2)nc1-c1cc2ccccc2o1)c1ccncc1 | inconclusive: -39.4% |  |
| O=C1c2ccccc2C(=O)N1CCc1nc2ccccc2c(=O)n1CCCn1ccnc1 | inactive: -7.76% |  |
| CC(=O)c1cccc(CN2CCCC(CCC(=O)NCc3ccc(F)c(F)c3)C2)c1 (stereo unspecified) | inconclusive: 6.36% [at 46 µM] |  |
| S=c1[nH]nc(-c2ccc(Br)o2)n1Cc1ccccc1 | inconclusive: 32% |  |
| Cn1c(SCc2cc(=O)c3cc(Cl)ccc3[nH]2)nnc1-c1ccccc1 | inconclusive: 0.88% [at 46 µM] |  |
| COc1ccc(Br)cc1CN1CCN(C(=O)c2ccc(F)cc2)CC1 | inactive: 18% [at 46 µM] |  |
| CC1(c2ccc3noc(-c4ccccc4)c3c2)OCCO1 | inconclusive: -31.2% |  |
| O=C(O)CCCC[C@@H]1CCSS1 |  | inconclusive: 0.355 µM [inhibitor, full curve, poor fit] |
| COCCn1c(C)cc(C(=O)CN2C(=O)NC3(CCCCCCC3)C2=O)c1C |  | inconclusive: 12.6 µM [activator, partial curve] |
| CSc1sc(C(=O)NN)c2c1C1(CCC2)SCCS1 | inactive: -5.94% [at 46 µM] |  |
| c1ccc(-n2nnc3c(N4CCOCC4)ncnc32)cc1 | inactive: 4.71% |  |
| Cc1nn(-c2ccccc2)c2c1C(c1ccccc1)C(C#N)=C(N)O2 (stereo unspecified) | inactive: -11.6% |  |
| COc1ccc(C(=O)C2CCN(C(=O)c3ccc(C)cc3)CC2)cc1 |  | inconclusive: 11.2 µM [falling, partial curve] |
| O=C(Cn1cnc2cc([N+](=O)[O-])ccc2c1=O)NC1CCS(=O)(=O)C1 (stereo unspecified) | inconclusive: 10.2% [at 46 µM] |  |
| Cc1ccccc1C(=O)c1c[nH]c(C(=O)NCCc2ccccn2)c1 | inactive: -9.51% [at 46 µM] |  |
| CCOC(=O)N1CCC(N2C(=O)c3ccccc3C2Nc2ccc(S(=O)(=O)N3CCCCC3)cc2)CC1 (stereo unspecified) | inconclusive: 27.3% [at 46 µM] |  |
| O=C(CCC1CCCCC1)NC1=NCCS1 | inactive: -2.99% |  |

| SMILES | ratio change, negative = inhibition | Potency |
| --- | --- | --- |
| Cc1cccc(Nc2ccncc2S(=O)(=O)NC(=O)NC(C)C)c1 | inconclusive: -11.8% |  |
| Cc1ccc(NNC(=O)c2c(C)noc2C)cc1Cl | inconclusive: 27.8% [at 46 µM] |  |
| O=C(Nc1ccc(Cl)cc1)NC1CCCCC1Cc1ccco1 (stereo unspecified) | inactive: 2.52% |  |
| O=C(CSc1nnc2c(Cl)cc(C(F)(F)F)cn12)NCc1ccc(F)cc1 | inconclusive: 9.51% |  |
| CS(=O)(=O)N1CCN(C(=O)c2ccc(-c3ccccc3)cc2)CC1 | inactive: -2.26% |  |
| Cc1ccccc1N(C(=O)c1csnn1)C(C(=O)NC(C)(C)C)c1ccncc1 (stereo unspecified) | inconclusive: -11.9% [at 46 µM] |  |
| CS(=O)(=O)N(CC(=O)NCc1ccncc1)c1cc(Cl)ccc1Cl | inactive: 1.33% [at 46 µM] |  |
| COc1ccc(C2=CC(=O)C=CC2=O)cc1 | inconclusive: -2.69% [at 46 µM] |  |
| CCC(=O)N1c2ccc(S(=O)(=O)CCC(=O)NCc3cccs3)cc2CC1C (stereo unspecified) |  | inconclusive: 17.8 µM [inhibitor, single point] |
| O=C(/N=C1/c2ccccc2CN1c1ccccc1)Nc1ccccc1 | inactive: -10.1% |  |
| CNC(=O)NC(=O)C(C)Oc1ccccc1F (stereo unspecified) |  | inconclusive: 0.447 µM [activator, full curve, poor fit] |
| O=C1CC(N(CCc2ccccc2)C(=S)Nc2ccccc2)C(=O)N1c1ccccc1 (stereo unspecified) |  | inconclusive: 35.5 µM [falling, single point] |
| O=C(NCc1ccccc1Cl)c1c2c(nc3ccccc13)C(=O)N(C1CCCCC1)C2 | inactive: -15.9% [at 46 µM] |  |
| ON=Cc1cccn1-c1ccccc1 | inconclusive: 5.65% |  |
| COc1ccc(NC(=O)CCC(=O)N(Cc2ccc(OC)c(OC)c2)c2nccs2)c(OC)c1 | inactive: 1.12% [at 46 µM] |  |
| O=[N+]([O-])c1cc(F)c(N2CCOCC2)cc1N1CCCCC1 | inactive: 12.9% |  |
| O=C(COc1ccc(S(=O)(=O)N2CCCCC2)cc1)NCc1cccnc1 | inactive: -1.5% |  |
| CCOC(=O)c1c(C)[nH]c(C2=NNC(=Nc3ccccc3)SC2)c1C |  | inconclusive: 35.5 µM [falling, single point] |
| Cc1ccc(N/C(N)=N/c2nc(C(F)(F)F)cc(C(F)(F)F)n2)cc1 | inconclusive: 5.38% [at 46 µM] |  |
| Cc1ccc(C(=O)Cn2c(NCCO)nc3ccccc32)cc1 | inactive: 0.901% |  |

Structural class, the compounds so far with a thiophene ring, fused or not.

| SMILES | ratio change, negative = inhibition | Potency |
| --- | --- | --- |
| NC(=O)CSc1nc2sc(-c3ccccc3)cc2c(=O)n1N | inactive: 8.4% |  |
| CC1=C(C(=O)Nc2ccccc2C(F)(F)F)C(c2ccc(C)s2)NC(=S)N1 (stereo unspecified) | inactive: -14.6% [at 46 µM] |  |
| CN1CCN(C(=O)c2ccc(N(C)S(=O)(=O)c3cccs3)cc2)CC1 | inactive: 17% [at 46 µM] |  |
| CSc1sc(C(=O)NN)c2c1C1(CCC2)SCCS1 | inactive: -5.94% [at 46 µM] |  |
| CCC(=O)N1c2ccc(S(=O)(=O)CCC(=O)NCc3cccs3)cc2CC1C (stereo unspecified) |  | inconclusive: 17.8 µM [inhibitor, single point] |
